Experimental data reported in the supplement of paper PMC7666118.
This is one part of the list.

Protein sequences, listed by entry. Tags and fused reporters are not part of them. Lines headed by an entry give the natural chain unless they say otherwise; changes in a name come on top.
UniProt Q6P6C2: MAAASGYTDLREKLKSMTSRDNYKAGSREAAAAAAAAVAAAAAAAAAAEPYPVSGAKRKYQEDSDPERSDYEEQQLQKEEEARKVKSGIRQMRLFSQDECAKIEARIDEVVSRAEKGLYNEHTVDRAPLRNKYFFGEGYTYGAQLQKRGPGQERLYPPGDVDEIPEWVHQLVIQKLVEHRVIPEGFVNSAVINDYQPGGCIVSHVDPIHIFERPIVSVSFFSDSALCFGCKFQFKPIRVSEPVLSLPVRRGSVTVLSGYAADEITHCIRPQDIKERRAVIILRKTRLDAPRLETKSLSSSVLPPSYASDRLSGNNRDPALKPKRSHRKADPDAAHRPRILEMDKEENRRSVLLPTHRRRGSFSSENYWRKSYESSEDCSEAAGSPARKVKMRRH
UniProt Q3SXY8: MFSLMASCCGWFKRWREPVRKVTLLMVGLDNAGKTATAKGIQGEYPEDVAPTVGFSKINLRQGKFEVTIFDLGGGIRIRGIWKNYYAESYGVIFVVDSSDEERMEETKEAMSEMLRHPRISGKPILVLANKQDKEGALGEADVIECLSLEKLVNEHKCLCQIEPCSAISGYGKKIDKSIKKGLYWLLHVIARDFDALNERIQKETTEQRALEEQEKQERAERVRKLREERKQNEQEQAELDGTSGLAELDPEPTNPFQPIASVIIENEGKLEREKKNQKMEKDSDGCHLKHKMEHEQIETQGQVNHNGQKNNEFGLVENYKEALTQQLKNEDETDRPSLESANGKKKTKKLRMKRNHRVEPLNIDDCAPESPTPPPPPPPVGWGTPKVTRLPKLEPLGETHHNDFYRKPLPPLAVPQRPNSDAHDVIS
UniProt Q96CW1: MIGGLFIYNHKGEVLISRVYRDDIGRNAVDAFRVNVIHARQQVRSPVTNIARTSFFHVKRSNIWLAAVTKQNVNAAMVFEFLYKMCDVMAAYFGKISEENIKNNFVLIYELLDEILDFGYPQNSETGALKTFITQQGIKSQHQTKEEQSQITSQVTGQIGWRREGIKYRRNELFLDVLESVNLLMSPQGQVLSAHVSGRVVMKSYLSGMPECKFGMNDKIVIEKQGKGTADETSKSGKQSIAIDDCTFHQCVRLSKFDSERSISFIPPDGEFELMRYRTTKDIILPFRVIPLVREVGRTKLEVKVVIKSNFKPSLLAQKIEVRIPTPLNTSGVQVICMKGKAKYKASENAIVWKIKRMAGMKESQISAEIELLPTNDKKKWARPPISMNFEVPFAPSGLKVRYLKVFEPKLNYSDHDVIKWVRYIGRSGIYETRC
UniProt P55145: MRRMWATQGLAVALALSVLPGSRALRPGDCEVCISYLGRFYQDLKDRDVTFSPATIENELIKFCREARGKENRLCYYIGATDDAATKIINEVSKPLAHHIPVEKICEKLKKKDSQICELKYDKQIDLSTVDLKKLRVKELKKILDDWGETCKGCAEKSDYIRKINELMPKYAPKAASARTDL
UniProt Q9NVJ2: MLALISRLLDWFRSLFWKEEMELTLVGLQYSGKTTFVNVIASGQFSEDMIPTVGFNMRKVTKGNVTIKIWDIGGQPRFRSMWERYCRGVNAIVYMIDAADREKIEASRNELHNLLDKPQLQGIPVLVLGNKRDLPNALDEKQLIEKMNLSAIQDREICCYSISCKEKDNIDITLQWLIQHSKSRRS
UniProt Q96NW4, whole entry: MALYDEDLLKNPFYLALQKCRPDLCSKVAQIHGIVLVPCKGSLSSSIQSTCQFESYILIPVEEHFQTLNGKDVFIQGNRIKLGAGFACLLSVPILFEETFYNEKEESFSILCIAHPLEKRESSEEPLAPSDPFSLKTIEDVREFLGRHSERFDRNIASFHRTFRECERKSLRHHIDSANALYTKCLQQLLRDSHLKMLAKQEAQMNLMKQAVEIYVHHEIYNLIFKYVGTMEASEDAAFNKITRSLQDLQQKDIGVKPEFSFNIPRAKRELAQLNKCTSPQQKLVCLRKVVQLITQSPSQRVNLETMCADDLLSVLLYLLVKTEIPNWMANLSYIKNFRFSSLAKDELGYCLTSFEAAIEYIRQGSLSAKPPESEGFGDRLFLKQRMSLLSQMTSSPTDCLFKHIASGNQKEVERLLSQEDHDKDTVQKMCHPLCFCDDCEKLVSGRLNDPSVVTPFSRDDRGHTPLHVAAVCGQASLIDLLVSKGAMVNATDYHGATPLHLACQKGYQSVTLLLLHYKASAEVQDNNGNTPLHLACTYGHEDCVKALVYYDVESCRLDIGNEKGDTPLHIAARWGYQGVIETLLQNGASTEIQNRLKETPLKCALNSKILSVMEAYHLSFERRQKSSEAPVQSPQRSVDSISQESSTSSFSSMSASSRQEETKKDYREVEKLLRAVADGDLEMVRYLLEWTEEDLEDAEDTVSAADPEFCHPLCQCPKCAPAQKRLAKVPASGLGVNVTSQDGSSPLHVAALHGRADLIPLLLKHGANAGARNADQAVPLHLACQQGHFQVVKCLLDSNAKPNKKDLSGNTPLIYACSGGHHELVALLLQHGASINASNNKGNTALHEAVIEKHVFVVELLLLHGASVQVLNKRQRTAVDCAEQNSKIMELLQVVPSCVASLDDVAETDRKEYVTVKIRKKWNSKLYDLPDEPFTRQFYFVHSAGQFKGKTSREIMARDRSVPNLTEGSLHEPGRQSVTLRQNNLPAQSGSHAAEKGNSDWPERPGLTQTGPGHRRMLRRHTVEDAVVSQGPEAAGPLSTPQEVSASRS
UniProt Q9HCJ1: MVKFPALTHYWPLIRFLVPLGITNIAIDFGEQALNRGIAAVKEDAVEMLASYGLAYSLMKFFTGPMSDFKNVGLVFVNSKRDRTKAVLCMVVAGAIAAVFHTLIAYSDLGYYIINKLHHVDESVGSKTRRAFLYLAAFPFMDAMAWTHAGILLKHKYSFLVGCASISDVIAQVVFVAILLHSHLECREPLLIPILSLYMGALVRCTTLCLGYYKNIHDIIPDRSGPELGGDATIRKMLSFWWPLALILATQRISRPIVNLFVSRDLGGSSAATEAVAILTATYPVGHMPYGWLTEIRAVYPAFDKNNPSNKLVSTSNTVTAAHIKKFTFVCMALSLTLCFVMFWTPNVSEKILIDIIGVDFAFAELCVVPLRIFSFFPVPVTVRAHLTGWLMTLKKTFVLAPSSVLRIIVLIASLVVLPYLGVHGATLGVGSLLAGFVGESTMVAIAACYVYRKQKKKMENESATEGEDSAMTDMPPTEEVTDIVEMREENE
UniProt Q9BZE9, whole entry: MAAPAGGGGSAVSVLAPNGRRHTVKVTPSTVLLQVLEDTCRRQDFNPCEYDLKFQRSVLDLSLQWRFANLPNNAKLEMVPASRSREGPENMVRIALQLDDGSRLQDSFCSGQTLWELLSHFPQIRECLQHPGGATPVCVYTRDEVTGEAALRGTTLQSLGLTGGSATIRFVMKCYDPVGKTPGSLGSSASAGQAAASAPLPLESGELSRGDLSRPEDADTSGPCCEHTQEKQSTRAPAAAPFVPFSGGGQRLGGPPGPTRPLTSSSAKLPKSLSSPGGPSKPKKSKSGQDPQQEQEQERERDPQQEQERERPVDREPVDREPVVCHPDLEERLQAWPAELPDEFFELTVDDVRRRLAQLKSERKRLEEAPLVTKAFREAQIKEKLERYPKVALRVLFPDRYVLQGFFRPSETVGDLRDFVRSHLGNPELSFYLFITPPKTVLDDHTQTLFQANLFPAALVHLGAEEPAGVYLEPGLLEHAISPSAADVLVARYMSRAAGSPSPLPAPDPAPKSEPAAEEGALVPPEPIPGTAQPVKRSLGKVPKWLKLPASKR
UniProt Q9BUR5: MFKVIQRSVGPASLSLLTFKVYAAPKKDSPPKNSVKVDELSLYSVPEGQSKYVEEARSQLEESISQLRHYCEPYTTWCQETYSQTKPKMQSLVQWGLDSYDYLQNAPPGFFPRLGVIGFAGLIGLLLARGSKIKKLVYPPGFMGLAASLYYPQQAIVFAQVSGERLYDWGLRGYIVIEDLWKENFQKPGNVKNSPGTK
UniProt Q9NW15: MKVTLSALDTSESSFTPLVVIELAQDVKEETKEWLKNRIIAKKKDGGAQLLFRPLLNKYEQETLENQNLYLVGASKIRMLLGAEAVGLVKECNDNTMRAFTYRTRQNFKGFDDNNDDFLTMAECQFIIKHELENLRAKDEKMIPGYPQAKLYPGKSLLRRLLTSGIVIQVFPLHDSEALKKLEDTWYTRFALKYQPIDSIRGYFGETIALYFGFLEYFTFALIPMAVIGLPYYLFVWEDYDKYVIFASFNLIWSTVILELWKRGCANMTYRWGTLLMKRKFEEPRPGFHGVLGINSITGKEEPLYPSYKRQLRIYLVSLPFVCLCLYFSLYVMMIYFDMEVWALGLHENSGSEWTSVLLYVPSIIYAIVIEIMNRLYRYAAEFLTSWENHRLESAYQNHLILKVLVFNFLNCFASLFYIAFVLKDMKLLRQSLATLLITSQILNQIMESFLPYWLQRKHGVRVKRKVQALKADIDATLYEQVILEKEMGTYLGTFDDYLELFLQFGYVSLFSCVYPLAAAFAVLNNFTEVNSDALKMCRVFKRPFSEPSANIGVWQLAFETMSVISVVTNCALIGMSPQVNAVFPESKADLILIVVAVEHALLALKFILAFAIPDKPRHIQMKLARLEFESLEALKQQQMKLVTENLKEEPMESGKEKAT
UniProt Q13510, whole entry: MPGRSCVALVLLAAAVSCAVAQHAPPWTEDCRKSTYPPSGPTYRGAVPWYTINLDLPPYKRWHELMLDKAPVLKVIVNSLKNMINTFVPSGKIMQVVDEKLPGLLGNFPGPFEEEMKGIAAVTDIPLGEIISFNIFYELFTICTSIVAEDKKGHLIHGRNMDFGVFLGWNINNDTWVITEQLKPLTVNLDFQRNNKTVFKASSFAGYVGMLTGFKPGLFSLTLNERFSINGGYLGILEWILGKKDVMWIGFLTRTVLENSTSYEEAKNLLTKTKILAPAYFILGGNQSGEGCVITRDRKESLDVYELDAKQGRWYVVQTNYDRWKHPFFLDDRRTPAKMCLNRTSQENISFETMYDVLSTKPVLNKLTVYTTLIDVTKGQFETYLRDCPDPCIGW
UniProt O95376: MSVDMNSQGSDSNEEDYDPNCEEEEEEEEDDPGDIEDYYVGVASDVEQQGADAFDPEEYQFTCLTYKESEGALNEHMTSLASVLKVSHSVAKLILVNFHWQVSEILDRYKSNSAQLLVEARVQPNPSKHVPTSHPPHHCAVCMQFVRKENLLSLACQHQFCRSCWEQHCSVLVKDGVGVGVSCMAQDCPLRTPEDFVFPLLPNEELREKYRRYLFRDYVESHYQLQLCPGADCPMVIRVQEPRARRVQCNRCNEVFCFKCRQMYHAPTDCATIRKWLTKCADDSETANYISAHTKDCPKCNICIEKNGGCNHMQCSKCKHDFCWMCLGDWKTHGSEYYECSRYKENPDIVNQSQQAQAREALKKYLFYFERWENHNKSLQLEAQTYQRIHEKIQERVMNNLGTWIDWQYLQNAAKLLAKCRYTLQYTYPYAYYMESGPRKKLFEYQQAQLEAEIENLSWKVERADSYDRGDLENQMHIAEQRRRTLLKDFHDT
UniProt P31939: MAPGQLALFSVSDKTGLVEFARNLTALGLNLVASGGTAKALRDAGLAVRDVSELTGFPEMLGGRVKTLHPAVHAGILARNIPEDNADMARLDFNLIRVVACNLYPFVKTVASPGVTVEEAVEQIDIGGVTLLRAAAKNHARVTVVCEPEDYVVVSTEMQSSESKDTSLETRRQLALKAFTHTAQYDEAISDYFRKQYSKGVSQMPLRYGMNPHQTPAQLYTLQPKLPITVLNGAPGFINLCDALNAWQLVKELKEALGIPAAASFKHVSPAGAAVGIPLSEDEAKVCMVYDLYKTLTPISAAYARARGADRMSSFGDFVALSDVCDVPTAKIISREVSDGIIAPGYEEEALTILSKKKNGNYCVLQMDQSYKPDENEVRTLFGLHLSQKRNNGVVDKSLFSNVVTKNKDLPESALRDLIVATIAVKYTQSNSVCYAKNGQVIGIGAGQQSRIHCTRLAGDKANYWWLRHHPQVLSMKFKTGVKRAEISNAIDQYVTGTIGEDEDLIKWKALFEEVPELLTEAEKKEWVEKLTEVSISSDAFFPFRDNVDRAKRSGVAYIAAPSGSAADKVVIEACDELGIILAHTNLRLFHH
UniProt P14550: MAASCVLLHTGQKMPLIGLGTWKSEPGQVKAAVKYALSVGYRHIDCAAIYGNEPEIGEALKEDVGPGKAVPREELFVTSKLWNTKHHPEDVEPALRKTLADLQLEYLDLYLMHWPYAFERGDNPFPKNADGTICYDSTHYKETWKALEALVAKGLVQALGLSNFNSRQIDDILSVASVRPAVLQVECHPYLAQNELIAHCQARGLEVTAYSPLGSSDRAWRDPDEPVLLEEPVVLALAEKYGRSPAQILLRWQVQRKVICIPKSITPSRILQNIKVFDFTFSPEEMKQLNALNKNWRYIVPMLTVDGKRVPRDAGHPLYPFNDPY

These targets were tested with COc1ccc(Cn2ccc3cc(C)c(C(=O)NO)cc32)cc1 (assay: dose-dependent thermal stabilisation call (2D-TPP, DLPTP, 10% FDR) (binary (1 = stabilised)); higher = stabilised by the compound). Settings: system: HL-60 intact cells; concentration range 0.04-10 µM.
Experimental: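 2D thermal proteome profiling in intact HL-60 cells treated with BRD-3811 (0, 0.04, 0.29, 2, 10 uM) for 90 min at 37 C, then heated 3 min at one of 12 temperatures (42-63.9 C). Soluble protein was quantified by TMT10 MS. The value is the DLPTP call of the paper: dose-dependent thermal stabilisation over all temperatures at 10% FDR (F-test of a dose-response against a flat model); one experiment, one call per tested protein.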

Target | dose-dependent thermal stabilisation call
ALKBH5 (UniProt Q6P6C2) | inactive: 0
APOB (UniProt P04114) | inactive: 0
ARL13B (UniProt Q3SXY8) | inactive: 0
AOAH (UniProt P28039) | inactive: 0
AIP (UniProt O00170) | inactive: 0
ARHGAP1 (UniProt Q07960) | inactive: 0
AP2M1 (UniProt Q96CW1) | inactive: 0
ARPC3 (UniProt O15145) | inactive: 0
ARMET (UniProt P55145) | inactive: 0
AKT2 (UniProt P31751) | inactive: 0
ARL6IP4 (UniProt Q66PJ3) | inactive: 0
ARL8B (UniProt Q9NVJ2) | inactive: 0
AGAP2 (UniProt Q99490) | inactive: 0
ARHGAP18 (UniProt Q8N392) | inactive: 0
ANKRD27 (UniProt Q96NW4) | inactive: 0
AIG1 (UniProt Q9NVV5) | inactive: 0
ANKH (UniProt Q9HCJ1) | inactive: 0
AHCYL1 (UniProt O43865) | inactive: 0
ALG1 (UniProt Q9BT22) | inactive: 0
AMBRA1 (UniProt Q9C0C7) | inactive: 0

A section from further up, for reference:
Target | dose-dependent thermal stabilisation call
AHCYL1 (UniProt O43865) | inactive: 0
ALG1 (UniProt Q9BT22) | inactive: 0
AMBRA1 (UniProt Q9C0C7) | inactive: 0

(further entries)

Target | dose-dependent thermal stabilisation call
ATE1 (UniProt O95260) | inactive: 0
ARHGAP10 (UniProt A1A4S6) | inactive: 0
ALG6 (UniProt Q9Y672) | inactive: 0
ASPSCR1 (UniProt Q9BZE9) | inactive: 0
ARPC2 (UniProt O15144) | inactive: 0
API5 (UniProt Q9BZZ5) | inactive: 0
APOO (UniProt Q9BUR5) | inactive: 0
ANO10 (UniProt Q9NW15) | inactive: 0
ASAH1 (UniProt Q13510) | inactive: 0
AP3B1 (UniProt O00203) | inactive: 0
ARIH2 (UniProt O95376) | inactive: 0
ARHGAP27 (UniProt Q6ZUM4) | inactive: 0
ANXA3 (UniProt P12429) | inactive: 0
ASS1 (UniProt P00966) | inactive: 0
AP4E1 (UniProt Q9UPM8) | inactive: 0
ARHGEF1 (UniProt Q92888) | inactive: 0
ATIC (UniProt P31939) | active: 1
ARHGAP25 (UniProt P42331) | inactive: 0
AKR1A1 (UniProt P14550) | inactive: 0
AP2A1 (UniProt O95782) | inactive: 0
